In paper PMC6546356 one finds binding data, which are given here for four molecules.

Results are given in words; binding and its absence hold for the method and conditions named. In cells and extracts the contact can be indirect. Some results given as binding are weak or reduced against the parent protein; the word gives no strength. Sequences can lack the tags named with a protein.

B1: Cascade subunit Cas7 (protein, UniProt Q46899 1-363)
chain: MSNFINIHVLISHSPSCLNRDDMNMQKDAIFGGKRRVRISSQSLKRAMRKSGYYAQNIGESSLRTIHLAQLRDVLRQKLGERFDQKIIDKTLALLSGKSVDEAEKISADAVTPWVVGEIAWFCEQVAKAEADNLDDKKLLKVLKEDIAAIRVNLQQGVDIALSGRMATSGMMTELGKVDGAMSIAHAITTHQVDSDIDWFTAVDDLQEQGSAHLGTQEFSSGVFYRYANINLAQLQENLGGASREQALEIATHVVHMLATEVPGAKQRTYAAFNPADMVMVNFSDMPLSMANAFEKAVKAKDGFLQPSIQAFNQYWDRVANGYGLNGAAAQFSLSDVDPITAQVKQMPTLEQLKSWVRNNGEA
B2: Cascade subunit Cse1 (protein, UniProt Q46901 1-502)
chain: MNLLIDNWIPVRPRNGGKVQIINLQSLYCSRDQWRLSLPRDDMELAALALLVCIGQIIAPAKDDVEFRHRIMNPLTEDEFQQLIAPWIDMFYLNHAEHPFMQTKGVKANDVTPMEKLLAGVSGATNCAFVNQPGQGEALCGGCTAIALFNQANQAPGFGGGFKSGLRGGTPVTTFVRGIDLRSTVLLNVLTLPRLQKQFPNESHTENQPTWIKPIKSNESIPASSIGFVRGLFWQPAHIELCDPIGIGKCSCCGQESNLRYTGFLKEKFTFTVNGLWPHPHSPCLVTVKKGEVEEKFLAFTTSAPSWTQISRVVVDKIIQNENGNRVAAVVNQFRNIAPQSPLELIMGGYRNNQASILERRHDVLMFNQGWQQYGNVINEIVTVGLGYKTALRKALYTFAEGFKNKDFKGAGVSVHETAERHFYRQSELLIPDVLANVNFSQADEVIADLRDKLHQLCEMLFNQSVAPYAHHPKLISTLALARATLYKHLRELKPQGGPSNG
B3: Cascade subunit Cas6e (protein, UniProt Q46897 1-199)
chain: MYLSKVIIARAWSRDLYQLHQGLWHLFPNRPDAARDFLFHVEKRNTPEGCHVLLQSAQMPVSTAVATVIKTKQVEFQLQVGVPLYFRLRANPIKTILDNQKRLDSKGNIKRCRVPLIKEAEQIAWLQRKLGNAARVEDVHPISERPQYFSGDGKSGKIQTVCFEGVLTINDAPALIDLVQQGIGPAKSMGCGLLSLAPL
B4: Cascade subunit Cas5 (protein, UniProt Q46898 1-224)
chain: MRSYLILRLAGPMQAWGQPTFEGTRPTGRFPTRSGLLGLLGACLGIQRDDTSSLQALSESVQFAVRCDELILDDRRVSVTGLRDYHTVLGAREDYRGLKSHETIQTWREYLCDASFTVALWLTPHATMVISELEKAVLKPRYTPYLGRRSCPLTHPLFLGTCQASDPQKALLNYEPVGGDIYSEESVTGHHLKFTARDEPMITLPRQFASREWYVIKGGMDVSQ

In one assay the target is T1, Cascade subunit Cse2 (CasB) with Streptactin-Tag II (E. coli) (UniProt P76632).
T1 sequence: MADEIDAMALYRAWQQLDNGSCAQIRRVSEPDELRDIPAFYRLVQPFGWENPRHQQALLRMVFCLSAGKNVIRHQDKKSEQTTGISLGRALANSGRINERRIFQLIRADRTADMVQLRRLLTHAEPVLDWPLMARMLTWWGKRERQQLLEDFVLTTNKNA
As to the kind of experiment: pull-down + SEC; co-purification of Cascade with crRNA1: subunits and crRNA1 co-expressed in BL21 AI; soluble lysate over StrepTrap column by the tag on Cse2, eluted with 2.5 mM desthiobiotin (100 mM Tris pH 8.0, 150 mM NaCl, 1 mM EDTA), then HiPrep Sephacryl S-300 HR.
As for B1, the binding result was “binds”.
On the same count and under the same terms, under B2 stands “binds”; under B3, “binds”.
With B4, the binding result is given as “binds”.

The target of a further assay is T1, Cascade subunit Cse2 (CasB) with Streptactin-Tag II (E. coli). As to the kind of experiment: pull-down + SEC; co-purification of Cascade lacking crRNA (Cascade-crZERO); stable during purification, gel filtration peak at the same position as Cascade-crRNA1. (In general: Size exclusion chromatography separates by hydrodynamic size, large species first.)
In the case of B1, the binding result is “binds”.
The same measure, in the same setting: the entry for B2 is “binds”.
Turning to B3, the binding result was “binds”.
On the same count and under the same terms, the entry for B4 is “binds”.
